Results taken from paper PMC10333072.
These are yes or no findings as the source states them, for the method shown. Binding seen in cells or lysates may run through a third protein. Some binding calls cover weakened binding; strength is not graded here.

Sequences of proteins named here, by UniProt entry; tags and fusion partners are left off. Residues count along the entry.
UniProt Q80U78: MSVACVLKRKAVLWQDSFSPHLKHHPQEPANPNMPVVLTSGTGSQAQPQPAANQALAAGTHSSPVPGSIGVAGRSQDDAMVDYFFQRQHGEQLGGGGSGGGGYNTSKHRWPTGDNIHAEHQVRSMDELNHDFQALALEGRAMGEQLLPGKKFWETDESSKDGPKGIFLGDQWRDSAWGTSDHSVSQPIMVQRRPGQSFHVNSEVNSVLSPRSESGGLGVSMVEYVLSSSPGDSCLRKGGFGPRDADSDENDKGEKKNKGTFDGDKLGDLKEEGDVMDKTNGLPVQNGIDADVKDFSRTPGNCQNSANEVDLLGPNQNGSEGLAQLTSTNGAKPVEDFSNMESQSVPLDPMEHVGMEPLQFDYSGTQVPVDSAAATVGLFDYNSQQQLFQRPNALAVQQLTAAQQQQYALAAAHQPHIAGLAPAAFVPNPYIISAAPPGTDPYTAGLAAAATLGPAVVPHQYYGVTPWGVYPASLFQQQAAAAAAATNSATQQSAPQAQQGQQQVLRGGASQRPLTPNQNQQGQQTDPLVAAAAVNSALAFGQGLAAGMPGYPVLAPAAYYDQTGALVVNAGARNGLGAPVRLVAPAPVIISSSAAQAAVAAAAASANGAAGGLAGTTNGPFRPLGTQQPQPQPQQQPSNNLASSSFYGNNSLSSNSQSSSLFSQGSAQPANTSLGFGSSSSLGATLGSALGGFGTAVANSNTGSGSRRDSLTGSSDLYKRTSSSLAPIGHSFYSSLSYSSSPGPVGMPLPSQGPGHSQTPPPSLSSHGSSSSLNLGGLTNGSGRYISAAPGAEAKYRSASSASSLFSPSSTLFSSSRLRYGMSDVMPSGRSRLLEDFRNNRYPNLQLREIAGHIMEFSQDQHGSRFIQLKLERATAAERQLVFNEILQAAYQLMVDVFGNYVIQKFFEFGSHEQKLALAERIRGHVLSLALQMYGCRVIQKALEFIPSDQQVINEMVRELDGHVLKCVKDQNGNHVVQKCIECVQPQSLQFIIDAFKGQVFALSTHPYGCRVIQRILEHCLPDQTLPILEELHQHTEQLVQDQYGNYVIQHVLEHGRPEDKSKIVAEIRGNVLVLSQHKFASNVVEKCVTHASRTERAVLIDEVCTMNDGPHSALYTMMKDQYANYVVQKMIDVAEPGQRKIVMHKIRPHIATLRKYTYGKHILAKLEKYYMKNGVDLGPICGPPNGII
UniProt P51865, residues 18-134: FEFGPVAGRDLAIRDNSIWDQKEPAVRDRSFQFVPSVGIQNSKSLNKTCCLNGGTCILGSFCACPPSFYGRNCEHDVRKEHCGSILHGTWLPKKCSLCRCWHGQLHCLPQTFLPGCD

What was measured:
[1] = molecular target: PUM1 (mouse (endogenous in RAW264.7)) (UniProt Q80U78); experiment: co-IP; RAW264.7 cells; precipitation of PUM1, blot for Cripto-1; conditions not given
GST-Cripto-1 = GST-Cripto-1 (UniProt P51865); experiment: pull-down; GST-CR-1 as bait, His-PUM1 detected by blot; conditions not given

Row | binding [1] | binding (GST-Cripto-1) | Substance
1 | binds |  | Cripto-1 (from UniProt P51865 18-134)
2 |  | binds | His-PUM1 (from UniProt Q80U78 1-1189)
